At least one structure is not confirmed: it was looked up by name or label, or the drawing left a doubt.
Experiments:
[1] = tested on: human endothelial cells of the thoracic aorta (HAEC); test: Western blot, phosphorylation of eNOS stimulatory site (S1177) in HAEC; type: cell-based; conditions: FIG. 13
Experimental: CHO cells transfected with the Mas receptor (CHO-Mas) and human endothelial cells of the thoracic aorta (HAEC) were cultured until confluence of approximately 80% and processed with a lise buffer for Western blotting. After the processing, the protein concentration was determined and the lisates were subjected to electrophoresis in polyacrylamide/SDS gel and then subjected to transfer to the nitrocellulose membrane. The membranes were incubated with specific antibodies (anti-phospho-Akt, anti-Akt, anti-phospho-eNOS and anti-β-actin). The bands were viewed after development by chemoluminescence.

awake Wistar rats = test: Vasodilating action of acetylcholine (blood pressure) in awake rats; type: in vivo, rat; conditions: endovenous bolus 10^-6M, then infusion 10^-6M with Ang-(1-7) 7.0 pmol/min, n=7, FIG. 14C
Experimental: Wistar rats were subjected, 24 hours before the experiments, to surgical implantation of catheters into the femoral artery (for analysis of blood pressure and heart rate), femoral vein (for injection and infusion of drugs) and left carotid artery (for injection of drugs). The records of blood pressure and heart rate were obtained through a data acquisition system connected to a microcomputer (BIOPAC System, INc.). […] In none of the groups did we observe any alterations in the baroreflex.

COC[C@H]1OC(=O)c2coc3c2[C@@]1(C)C1=C(C3=O)[C@@H]2CCC(=O)[C@@]2(C)C[C@H]1OC(C)=O [wortmannin, reference compound]
effect on Ang-(1-7)-stimulated phosphorylation of eNOS (S1177) [1]: blocked this effect | effect on the potentiation by Ang-(1-7) of the vasodilating effect of acetylcholine (ACh) (awake Wistar rats): blocks the potentiation

From patent US20080312129A1, “Use of Mas G-Protein-Coupled Receptor Agonists and Antagonists, as Apoptotic-Activity Modulators for Study, Prevention and Treatment of Diseases” (priority 2005, published 2008)
